Data from paper PMC11574751 (ACS Chemical Biology, 2024).
No constants are given. Whether binding was seen depends on the method and setting. Some binding calls cover weakened binding; strength is not graded here.

Target: T1, ABCG2 (breast cancer resistance protein) (human), Q9UNQ0
T1 chain: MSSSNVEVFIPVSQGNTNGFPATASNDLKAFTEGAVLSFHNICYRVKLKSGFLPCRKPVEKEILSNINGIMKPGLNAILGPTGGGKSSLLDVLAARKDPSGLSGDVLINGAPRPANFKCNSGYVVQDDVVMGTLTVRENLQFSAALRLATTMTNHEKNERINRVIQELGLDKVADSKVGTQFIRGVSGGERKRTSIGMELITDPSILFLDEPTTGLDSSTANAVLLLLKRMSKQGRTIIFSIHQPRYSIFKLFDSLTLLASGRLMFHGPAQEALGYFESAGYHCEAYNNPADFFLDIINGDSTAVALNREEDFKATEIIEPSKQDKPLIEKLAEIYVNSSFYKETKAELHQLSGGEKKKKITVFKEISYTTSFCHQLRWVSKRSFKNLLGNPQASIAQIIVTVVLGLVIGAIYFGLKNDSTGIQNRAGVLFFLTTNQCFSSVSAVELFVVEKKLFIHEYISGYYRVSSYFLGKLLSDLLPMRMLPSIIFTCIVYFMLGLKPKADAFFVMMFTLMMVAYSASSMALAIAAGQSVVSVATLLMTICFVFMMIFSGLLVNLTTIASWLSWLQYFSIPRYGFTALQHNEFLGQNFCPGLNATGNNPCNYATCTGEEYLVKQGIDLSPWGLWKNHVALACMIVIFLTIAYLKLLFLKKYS
Assay: cryo-EM structure; nanodisc-reconstituted ABCG2 with 5D3-Fab added and two copies of an inhibitor bound (Ko143, MZ29, MZ82 or AZ99); inward-open conformation; the MZ29 structure is from a reprocessed, previously published data set; both purified
Settings: remark: other sources report otherwise

binding: binds
B1: ABCG2 (breast cancer resistance protein), Q9UNQ0 1-655 (protein)
chain: T1 chain
